Measurements: article PMC8626775, “Anti-schistosomal activities of quinoxaline-containing compounds: From hit identification to lead optimisation” (European Journal of Medicinal Chemistry, 2021)

Test system: HepG2 cells
Experiment: HepG2 MTT cytotoxicity assay
Settings: HepG2 CC50 versus schistosomula EC50
Protocol: Initially the cells were handled under sterile conditions and grown at 37 °C in a humidified atmosphere containing 5% CO2. Cytotoxicity was evaluated by way of a 3-(4, 5- dimethylthiazol-2-yl)-2,5-diphenyl tetrazolium bromide (MTT) assay as previously described. The cells were counted in a dual chamber counting slide using the BIORAD TC-10 Automated cell counter, seeded in a 96-well plate (Fisher Scientific, Loughborough, UK) at a density of 2 × 10^4 cells/well and incubated in an atmosphere of 5% CO2 at 37 °C. […] The absorbance readings (at 570 nm) of the soluble formazan crystals were recorded using PolarStar Omega plate reader (BMG-Labtech). […] The latter was used to calculate the selectivity index (SI) of the compounds presented herein.

## CC(=O)OC[C@H]1O[C@@H]([S-])[C@H](OC(C)=O)[C@@H](OC(C)=O)[C@@H]1OC(C)=O.CCP(CC)CC.[Au+] [AUR, Auranofin, reference compound]
  Selectivity Index (SI) Somula: 7.17
